Data set [1] can be described thus: general procedure: solution-phase peptide synthesis; HATU.
Data set [2] deals with Notch 1-3 NRR domain swap chimeras. Nature of the data set: Notch 1-3 NRR domain swap chimera ELISA (epitope mapping). In kind it is binding, human. The following applies: antibody at 5 ug/ml; FIG. 6.
Where [3] appears, read: late stage modification step, HPLC Protocol A.

The record followed here is patent US9433687B2 (Pfizer Inc., priority 2012, dated 2016).

Where only a bound is given, the exact number is not on record here.

For the molecule “2-methylalanyl-N-[(3R,4S,5S)-1-{(2S)-2-[(1R,2R)-3-{[(1S,2R)-1-hydroxy-1-phenylpropan-2-yl]amino}-1-methoxy-2-methyl-3-oxopropyl]pyrrolidin-1-yl}-3-methoxy-5-methyl-1-oxoheptan-4-yl]-N-methyl-L-valinamide”, the step yield in data set [1] (late stage modification step) was 51%. In addition, in data set [1] (setting [3]), the “final HPLC purity” value is listed as >90%. For “2-methylalanyl-N-[(3R,4S,5S)-3-methoxy-1-{(2S)-2-[(1R,2R)-1-methoxy-2-methyl-3-oxo-3-{[(1S)-2-phenyl-1-(1,3-thiazol-2-yl)ethyl]amino}propyl]pyrrolidin-1-yl}-5-methyl-1-oxoheptan-4-yl]-N-methyl-L-valinamide”, in that order: 75% and >97%. In data set [1] (coupling step), “N-[(9H-fluoren-9-ylmethoxy)carbonyl]-2-methylalanyl-N-[(3R,4S,5S)-1-{(2S)-2-[(1R,2R)-3-{[(1S,2R)-1-hydroxy-1-phenylpropan-2-yl]amino}-1-methoxy-2-methyl-3-oxopropyl]pyrrolidin-1-yl}-3-methoxy-5-methyl-1-oxoheptan-4-yl]-N-methyl-L-valinamide” returned a step yield of 95%. Besides, the “final HPLC purity” value in data set [1] (coupling step, HPLC Protocol B) is >94%. In the case of “N-[(9H-fluoren-9-ylmethoxy)carbonyl]-2-methylalanyl-N-[(3R,4S,5S)-3-methoxy-1-{(2S)-2-[(1R,2R)-1-methoxy-2-methyl-3-oxo-3-{[(1S)-2-phenyl-1-(1,3-thiazol-2-yl)ethyl]amino}propyl]pyrrolidin-1-yl}-5-methyl-1-oxoheptan-4-yl]-N-methyl-L-valinamide”, in data set [1] (coupling step), the step yield is listed as 74%. The “final HPLC purity” value in data set [1] (coupling step, HPLC Protocol A) is >97%.

B1: ch75: rat-human chimeric anti-Notch3 antibody 75, rat variable regions fused with human IgG1 and human kappa (antibody, V domains shown)
VH: QVKLLQSGAALVKPGASVKMSCKASGYAFTDYWVTWVKQSHGKSLEWIGEISPNSGGTNFNEKFKGKATLTVDKSTSTAYMELSRLTSEDSAIYYCTRGEIRYNWFAYWGQGTLVTVSS
VL: NIVMTQSPKSMSISVGDRVTMNCKASQNVGNNIAWYQQKPGQSPKLLIYYASNRYTGVPDRFTGGGYGTDFTLTINSMQAEDAAFYYCQRLYNSPFTFGSGTKLEIK
As to B1, the “epitope binding profile to domains of the Notch3 NRR” value in data set [2] is “more dependent on the LNR-A and both the HD-1 and HD-2 domains”.

B2: ch28: rat-human chimeric anti-Notch3 antibody 28, rat variable regions fused with human IgG1 and human kappa (antibody, V domains shown)
VH: EVQLVESGGGLVQPGRSLTLSCVASGFTFRDYGMTWIRQAPGKGLTWVAYISSGSNYIYYAEAVKGRFTISRDNAKNTLYLQMTSLRSEDTALYFCTRRGPFVLDAWGQGASVTVSS
VL: DIQMTQSPSFLSASVGDRVTINCKASQSINRYLHWFQQKLGEAPKLLIYNANGLQTGIPSRFSGSGSGTDFTLTISSLQSEDVATYFCLQHNTWPDTFGAGTKLELK
As to B2, in data set [2], the “epitope binding profile to domains of the Notch3 NRR” value was “more dependent on the LNR-C and HD-1 domains”.
